{
  "source": "the supplement of paper PMC8007513",
  "note": "The other results are listed elsewhere or left out. Single values are uncertain, as repeats are few or missing.",
  "data": [
    {"tested_on": "Saccharomyces cerevisiae BY4743", "test": "growth (OD600) with compound + IPBC relative to untreated control; higher = less growth inhibition", "settings": "compound concentration: 133 uM; IPBC concentration: 0.5 ug/ml; 20 h", "method": "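NMCCC compounds (133 uM) combined with IPBC (0.5 ug/ml) against Saccharomyces cerevisiae BY4743 in YPD, 96-well plates. Growth was read as OD600 at 20 h and expressed as % of the untreated control. Single pass.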", "units": {"growth": "%"}, "values": [
      {"molecule": "N#Cc1ccsc1NC(=O)CCNC1(c2ccc(Br)cc2)CCCC1", "note": "+ CCCCNC(=O)OCC#CI [3-iodo-2-propynyl butylcarbamate (IPBC)]", "growth": 94.7},
      {"molecule": "O=C(CCC(=O)N1CCOc2ccc(Cl)cc21)NCC1CCCO1", "note": "(stereo not drawn) + CCCCNC(=O)OCC#CI [3-iodo-2-propynyl butylcarbamate (IPBC)]", "growth": 103},
      {"molecule": "COc1cc(C(C)NC(=O)c2c(-c3ccccc3)noc2C)cc(OC)c1OC", "note": "(stereo not drawn) + CCCCNC(=O)OCC#CI [3-iodo-2-propynyl butylcarbamate (IPBC)]", "growth": 106},
      {"molecule": "CCc1nn2c(Cc3c(Cl)cccc3Cl)nnc2s1", "note": "+ CCCCNC(=O)OCC#CI [3-iodo-2-propynyl butylcarbamate (IPBC)]", "growth": 100},
      {"molecule": "CC1=CC=C(C=C1C)/C2=C(C)/C(=N\\[S]2(=O)=O)NC3=CC=C(Br)C(=C3)C", "note": "+ CCCCNC(=O)OCC#CI [3-iodo-2-propynyl butylcarbamate (IPBC)]", "growth": 104},
      {"molecule": "CC(=O)c1c(C)[nH]c(C(=O)C(C)Oc2ccc(F)c(Cl)c2)c1C", "note": "(stereo not drawn) + CCCCNC(=O)OCC#CI [3-iodo-2-propynyl butylcarbamate (IPBC)]", "growth": 102},
      {"molecule": "CCN(CC)C(=O)c1sc(N2C(=O)Nc3ccccc3N2O)c(C(=O)OC)c1C", "note": "+ CCCCNC(=O)OCC#CI [3-iodo-2-propynyl butylcarbamate (IPBC)]", "growth": 91.9},
      {"molecule": "CC(Sc1nnc(NC2CC2)s1)C(=O)N(C)C1(C#N)CCCCC1", "note": "(stereo not drawn) + CCCCNC(=O)OCC#CI [3-iodo-2-propynyl butylcarbamate (IPBC)]", "growth": 113},
      {"molecule": "CCN(CCNC(=O)CN1\\N=C/C2=C(SC=C2)C1=O)C3=CC=CC=C3", "note": "+ CCCCNC(=O)OCC#CI [3-iodo-2-propynyl butylcarbamate (IPBC)]", "growth": 88.1},
      {"molecule": "O=C(COC(=O)C1CCN(C(=O)Nc2ccccc2)CC1)c1ccc(Cl)s1", "note": "+ CCCCNC(=O)OCC#CI [3-iodo-2-propynyl butylcarbamate (IPBC)]", "growth": 94.5},
      {"molecule": "COC(=O)c1sccc1NS(=O)(=O)c1ccc(Cl)s1", "note": "+ CCCCNC(=O)OCC#CI [3-iodo-2-propynyl butylcarbamate (IPBC)]", "growth": 87.6},
      {"molecule": "C1CCC(CC1)N\\C2=N\\N=C(/CS2)C3=CC=C[NH]3", "note": "+ CCCCNC(=O)OCC#CI [3-iodo-2-propynyl butylcarbamate (IPBC)]", "growth": 75.6},
      {"molecule": "COc1ccc(-c2onc(C)c2C)cc1S(=O)(=O)N(C)C(C)CCc1ccco1", "note": "(stereo not drawn) + CCCCNC(=O)OCC#CI [3-iodo-2-propynyl butylcarbamate (IPBC)]", "growth": 99.1},
      {"molecule": "CC\\1(C)CC2=CC=CC=C2\\C(=N1)CSC3=CC=CC=C3C(O)=O", "note": "+ CCCCNC(=O)OCC#CI [3-iodo-2-propynyl butylcarbamate (IPBC)]", "growth": 102},
      {"molecule": "CSc1nc(C)c(CC(=O)N2CCN(S(=O)(=O)c3ccccc3C(F)(F)F)CC2)s1", "note": "+ CCCCNC(=O)OCC#CI [3-iodo-2-propynyl butylcarbamate (IPBC)]", "growth": 106},
      {"molecule": "CCOC(=O)Nc1cccc(C(=O)NCc2ccc(N3CCCC3=O)cc2)c1", "note": "+ CCCCNC(=O)OCC#CI [3-iodo-2-propynyl butylcarbamate (IPBC)]", "growth": 105},
      {"molecule": "Nc1nnc(SCc2nc(-c3cccc(C(F)(F)F)c3)no2)s1", "note": "+ CCCCNC(=O)OCC#CI [3-iodo-2-propynyl butylcarbamate (IPBC)]", "growth": 99.2},
      {"molecule": "NC(=O)c1cc(Cl)ccc1OCC(=O)Nc1ccc(N2CCCCC2)cc1", "note": "+ CCCCNC(=O)OCC#CI [3-iodo-2-propynyl butylcarbamate (IPBC)]", "growth": 99.6},
      {"molecule": "Cc1sc(NC(=O)C2CC2)c(C(=O)OC(C)C(=O)N2CCCC2)c1C", "note": "(stereo not drawn) + CCCCNC(=O)OCC#CI [3-iodo-2-propynyl butylcarbamate (IPBC)]", "growth": 96.1},
      {"molecule": "Cc1ccc(S(=O)(=O)CCc2nc(S(=O)(=O)c3ccc(C)cc3)c(N(C)C)o2)cc1", "note": "+ CCCCNC(=O)OCC#CI [3-iodo-2-propynyl butylcarbamate (IPBC)]", "growth": 87.9},
      {"molecule": "CCOC(=O)c1cc(C)n(-c2ccc(C(=O)N3CCN(C(=O)OCC)CC3)cc2)c1C", "note": "+ CCCCNC(=O)OCC#CI [3-iodo-2-propynyl butylcarbamate (IPBC)]", "growth": 104},
      {"molecule": "CC(Sc1ncnc2sccc12)C(=O)Nc1cccc(C#N)c1", "note": "(stereo not drawn) + CCCCNC(=O)OCC#CI [3-iodo-2-propynyl butylcarbamate (IPBC)]", "growth": 105},
      {"molecule": "CCCOc1ccc(CNC(=O)Cn2c(=O)oc3ccccc32)cc1", "note": "+ CCCCNC(=O)OCC#CI [3-iodo-2-propynyl butylcarbamate (IPBC)]", "growth": 98.2}
    ]}
  ]
}
